Some of the results follow. Shown are side measurements of this screen, not its main read-out; they come without a call. The list favours compounds with an active or inconclusive main result. Potencies come from curve fits of mixed quality, noted in brackets.
Assay: qHTS Assay for Lipid Storage Modulators in Drosophila S3 Cells;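 on cell number change: cells counted by Cell Tracker Red CMTPX staining in the red channel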
Settings: BODIPY lipid droplet fluorescence, 18-24 h; for cell number change: measured here: cell count max response, cells fed with added oleic acid
Procedure, shortened: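 Drosophila S3 cells loaded with oleic acid (400 uM, as added) and compounds at several concentrations; lipid droplets imaged by 488-nm laser-scanning cytometry, 500–530 nm intensity and object ratio to cell channel. Percent activity normalized to 20 uM Triacsin C.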

[1] = measured here: lipid fluorescence (Fed channel) AC50, cells fed with added oleic acid
[2] = measured here: cell number channel AC50, cells fed with added oleic acid

Row | SMILES | AC50 [1] | cell number change [%] | AC50 [2]
1 | CCc1nnc(NS(=O)(=O)c2ccc(NCc3ccccc3O)cc2)s1 | 0.82 µM [rising, full curve] | – | –
2 | Cc1cccc(OCCC(=O)Nc2ccc(Cl)cc2F)c1 | 29.1 µM [rising, single point] | 6.57 | –
3 | Cc1ccc(NC(=S)/N=C(\N)Nc2nc(C)c3ccccc3n2)cc1C | 0.731 µM [rising, partial curve] | -4.93 | –
4 | O=C(NC(=S)Nc1ccccc1C(=O)O)c1ccc(-c2ccc(Br)cc2)o1 | 0.58 µM [falling, single point] | -12.5 | –
5 | Cc1cc(NS(=O)(=O)c2ccc(NC(=O)c3ccc(Br)o3)cc2)nc(C)n1 | 0.0651 µM [rising, full curve, poor fit] | 14.1 | –
6 | O=C(CNC(=O)c1ccc(Cl)cc1)OCC(=O)N1CCCC1 | 29.1 µM [rising, single point] | 60.7 | 1.3 µM [rising, partial curve]
7 | CCN(CC)S(=O)(=O)N1CCC(C(=O)NCCN2CCOCC2)CC1 | 6.51 µM [falling, single point] | -17.8 | –
8 | CCN(CC)S(=O)(=O)c1cccc(C(=O)OCC(=O)N2CC(=O)Nc3ccccc32)c1 | 0.651 µM [rising, single point] | 37 | 1.16 µM [rising, partial curve]
9 | COc1cc(CCCN2C(=S)NC[C@H]2Cc2ccc(O)cc2)cc(OC)c1OC | 29.1 µM [falling, single point] | -22.5 | –
10 | COc1ccc(Cl)cc1C(=O)Nn1c(C)nc2ccccc2c1=O | 20.6 µM [rising, partial curve] | 1.6 | –
11 | COCCCN1C(=O)C(O)=C(C(C)=O)C1c1ccccn1 (stereo not given) | 14.6 µM [falling, partial curve] | -14.9 | 0.731 µM [falling, full curve, poor fit]
12 | COc1ccc2c(-c3ccccc3)cc(SC(C)C(N)=O)nc2c1 (stereo not given) | 32.6 µM [falling, single point] | -30.5 | 25.9 µM [falling, partial curve, poor fit]
13 | O=C(CN1CCN(C2CCCCC2)CC1)Nc1ccccc1N1CCCCC1 | 29.1 µM [rising, single point] | 18.2 | –
14 | O=C(CCC(=O)c1cccs1)OCc1ccc([N+](=O)[O-])cc1 | 32.6 µM [falling, single point] | -14.1 | –
15 | COc1cccc(NC(=O)CN(C)C(=O)Cn2c(=O)oc3ccccc32)c1 | 0.00517 µM [rising, full curve, poor fit] | -91.1 | 20.6 µM [falling, partial curve]
16 | CCCC(=O)c1ccc2c(c1)OCCO2 | 29.1 µM [falling, single point] | -20.2 | –
17 | CCOC(=O)CN=C1CC(C)(C)CC2=C1Sc1ncnc(N(C)C)c1N2 | 0.82 µM [rising, single point] | -30.7 | 32.6 µM [falling, single point]
18 | COC(=O)c1c(-c2ccncc2)csc1NC(=O)c1ccoc1C | 0.58 µM [rising, single point] | 11.2 | –
19 | COc1ccc(NC(=O)CSc2nncn2C)c([N+](=O)[O-])c1 | – | 147 | –
20 | COc1cc(C(=O)Nc2nnc(-c3sccc3C)s2)cc(OC)c1OC | 0.651 µM [falling, single point] | – | –
21 | CCn1c(CC(=O)Nc2ccc(C)c(Cl)c2)nnc1SCC(=O)Nc1nc(C)cs1 | 1.46 µM [rising, partial curve] | – | 1.16 µM [rising, partial curve, poor fit]
22 | Cn1nnnc1SC(C(=O)Nc1cccc(C(F)(F)F)c1)c1ccccc1 (stereo not given) | – | 33.3 | 32.6 µM [rising, single point]
23 | COc1ccc2c(c1)C1=NN(/C(C)=C/C(C)=O)C(c3cccc(F)c3)C1CC2 (stereo not given) | 6.51 µM [rising, partial curve] | 35.2 | 6.51 µM [rising, partial curve]
24 | CN(CC(=O)Nc1ccc(F)cc1)C(=O)Cn1cnc2ccc(Cl)cc2c1=O | 6.51 µM [falling, single point] | 3.43 | 6.51 µM [falling, single point]
25 | CCOC(=O)C1(C)NC(c2cccs2)C2C(=O)N(c3ccccc3)C(=O)C21 (stereo not given) | 0.651 µM [rising, partial curve, poor fit] | 3.76 | 2.91 µM [rising, single point]
26 | CN(C)c1ccc(C(=O)Nc2cc(C(F)(F)F)ccc2-n2cncn2)cc1 | 0.116 µM [rising, full curve, poor fit] | 49.6 | 10.3 µM [rising, partial curve, poor fit]
27 | O=C(OCc1cc(=O)n2cc(Br)ccc2n1)c1ccc(Cl)c(S(=O)(=O)NCc2ccccc2)c1 | 0.00517 µM [falling, full curve, poor fit] | -49.6 | 29.1 µM [falling, single point]

Row | SMILES | AC50 [1] | cell number change [%] | AC50 [2]
28 | COC(=O)CCCN1C(=O)c2cccc3cccc(c23)C1=O | 0.58 µM [falling, single point] | -20.1 | –
29 | Cc1ccc(O)c(-c2cc(C(=O)NCc3ccc4c(c3)OCO4)[nH]n2)c1 | 20.6 µM [rising, partial curve] | 32.1 | 23.1 µM [rising, single point]
30 | O=c1oc(-c2ccccc2)nc2c1C1(CCCCC1)Cc1ccccc1-2 | 0.058 µM [rising, partial curve, poor fit] | 14.8 | –
31 | CCc1nc(N2CCCC2)c(C#N)c2c1CCCC2 | – | 31.1 | 29.1 µM [rising, single point]
32 | O=C(Nc1ccc2c(c1)OCCO2)C1CCC1 | – | 7.54 | –
33 | O=S(=O)(c1ccc2c(c1)OCCO2)N1CCN(c2nc(-c3cccnc3)nc3ccccc23)CC1 | – | 79.1 | 6.51 µM [falling, partial curve, poor fit]
34 | Cc1ccccc1OC(=O)c1cccc(S(=O)(=O)N2CCN(C)CC2)c1 | – | 33.8 | 14.6 µM [rising, partial curve, poor fit]
35 | COC(=O)c1ccc(C)c(NC(=O)CN(c2cc(OC)ccc2OC)S(C)(=O)=O)c1 | 0.366 µM [rising, full curve] | 16.5 | 0.326 µM [rising, single point]
36 | Cc1ccc2c(CN3CCC(C)CC3)cc(=O)oc2c1 | 0.206 µM [rising, full curve, poor fit] | 21.1 | –
37 | OC1C2(Cc3ccccc3)CN3CCN(C2)CC1(Cc1ccccc1)C3 (stereo not given) | 6.51 µM [falling, single point] | -15.5 | 0.13 µM [falling, full curve, poor fit]
38 | Brc1ccc(-c2nnc3ccc(N4CCN(c5ccccc5)CC4)nn23)cc1 | 0.651 µM [falling, full curve, poor fit] | -22 | –
39 | CN(CC(=O)Nc1ccccc1Cl)C(=O)c1ccc(-c2cccc(C(F)(F)F)c2)o1 | – | 141 | 23.1 µM [rising, partial curve]
40 | NS(=O)(=O)c1ccc(S(=O)(=O)N2CCN(C3CCCC3)CC2)cc1 | 0.731 µM [rising, partial curve, poor fit] | -6.96 | –
41 | Cc1ccccc1N(CC(=O)N/N=C/c1ccccc1Cl)C(=O)c1ccccc1 | – | 58.5 | 29.1 µM [rising, single point]
42 | Cc1nc(NC(=O)c2ccccc2)sc1-c1csc(Nc2ccc(Cl)cc2)n1 | 8.2 µM [falling, partial curve] | -28.8 | –
43 | CC(C)c1ccc(-n2cccc2/C=C2/C(=N)N3C=CSC3=NC2=O)cc1 | 8.2 µM [rising, partial curve] | 24.4 | –
44 | O=C(Nc1cccc(Br)c1)/C(=C\c1cccnc1)NC(=O)c1ccco1 | 16.4 µM [rising, single point] | 7.14 | –
45 | Cc1cc(C)n2nc(SCC(=O)N(C)C3CCCCC3)nc2n1 | 7.31 µM [falling, single point] | – | 6.51 µM [rising, single point]
46 | Cc1ccc(-c2noc(C3CCCN(C(=O)c4cccc([N+](=O)[O-])c4)C3)n2)o1 (stereo not given) | – | -10.5 | –
47 | CCOc1ccc(OCC)c(NC(=O)C2CCCN(S(=O)(=O)c3c(C)n[nH]c3C)C2)c1 (stereo not given) | – | 11 | 0.116 µM [rising, full curve]
48 | CCc1ccc2c(c1)CCCN2C(=O)c1ccccc1C(=O)O | 0.13 µM [falling, partial curve, poor fit] | 3.74 | –
49 | CCCc1cc(C(=O)NC2CCCCC2)no1 | 6.51 µM [rising, partial curve, poor fit] | – | 6.51 µM [rising, single point]
50 | CCNc1nc(OCCNS(=O)(=O)c2cc(C)ccc2C)nc(N(C)C)n1 | 5.8 µM [rising, full curve] | -3.31 | –
51 | O=C(Nc1ccc(S(=O)(=O)N2CCCCC2)cc1)C1CCCCC1 | – | -12.4 | –
52 | Brc1ccc(-c2nn3c(-c4ccncc4)nnc3s2)o1 | – | -19.1 | –
53 | C/C(CC(=O)Nc1ccc2c(c1)OCCO2)=N\NC(=O)COc1ccc(Cl)c(C)c1 | 29.1 µM [rising, single point] | 1.53 | –
54 | Cc1ccc(C2C3CN(C(C)C)CC=C3C(C#N)=C(N)C2(C#N)C#N)cc1 (stereo not given) | 0.164 µM [rising, full curve, poor fit] | – | 0.164 µM [rising, full curve, poor fit]

Part of the list above, with tabs.
Row	SMILES	AC50 [1]	cell number change [%]	AC50 [2]
50	CCNc1nc(OCCNS(=O)(=O)c2cc(C)ccc2C)nc(N(C)C)n1	5.8 µM [rising, full curve]	-3.31	–
51	O=C(Nc1ccc(S(=O)(=O)N2CCCCC2)cc1)C1CCCCC1	–	-12.4	–
